# Laboratory results reported in paper PMC5464859.
# Amino acid sequences for entries named in this document (tags omitted).
# UniProt P03372: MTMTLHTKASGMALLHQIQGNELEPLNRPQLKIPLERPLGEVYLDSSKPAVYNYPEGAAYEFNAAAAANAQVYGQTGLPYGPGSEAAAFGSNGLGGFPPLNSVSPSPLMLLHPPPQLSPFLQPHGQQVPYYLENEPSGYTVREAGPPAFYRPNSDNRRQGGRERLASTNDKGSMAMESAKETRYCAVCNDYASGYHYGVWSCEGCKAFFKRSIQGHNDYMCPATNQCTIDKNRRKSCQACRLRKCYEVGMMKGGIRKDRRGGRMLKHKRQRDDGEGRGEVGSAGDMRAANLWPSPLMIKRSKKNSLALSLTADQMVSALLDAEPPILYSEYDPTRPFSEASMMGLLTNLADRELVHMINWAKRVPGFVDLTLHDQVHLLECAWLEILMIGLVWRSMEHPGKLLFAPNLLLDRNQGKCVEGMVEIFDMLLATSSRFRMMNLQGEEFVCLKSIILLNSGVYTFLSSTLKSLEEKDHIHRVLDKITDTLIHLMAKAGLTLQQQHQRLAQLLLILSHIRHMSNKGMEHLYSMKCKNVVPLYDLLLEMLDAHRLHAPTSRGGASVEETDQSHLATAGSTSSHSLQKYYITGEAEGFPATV
# UniProt O75376: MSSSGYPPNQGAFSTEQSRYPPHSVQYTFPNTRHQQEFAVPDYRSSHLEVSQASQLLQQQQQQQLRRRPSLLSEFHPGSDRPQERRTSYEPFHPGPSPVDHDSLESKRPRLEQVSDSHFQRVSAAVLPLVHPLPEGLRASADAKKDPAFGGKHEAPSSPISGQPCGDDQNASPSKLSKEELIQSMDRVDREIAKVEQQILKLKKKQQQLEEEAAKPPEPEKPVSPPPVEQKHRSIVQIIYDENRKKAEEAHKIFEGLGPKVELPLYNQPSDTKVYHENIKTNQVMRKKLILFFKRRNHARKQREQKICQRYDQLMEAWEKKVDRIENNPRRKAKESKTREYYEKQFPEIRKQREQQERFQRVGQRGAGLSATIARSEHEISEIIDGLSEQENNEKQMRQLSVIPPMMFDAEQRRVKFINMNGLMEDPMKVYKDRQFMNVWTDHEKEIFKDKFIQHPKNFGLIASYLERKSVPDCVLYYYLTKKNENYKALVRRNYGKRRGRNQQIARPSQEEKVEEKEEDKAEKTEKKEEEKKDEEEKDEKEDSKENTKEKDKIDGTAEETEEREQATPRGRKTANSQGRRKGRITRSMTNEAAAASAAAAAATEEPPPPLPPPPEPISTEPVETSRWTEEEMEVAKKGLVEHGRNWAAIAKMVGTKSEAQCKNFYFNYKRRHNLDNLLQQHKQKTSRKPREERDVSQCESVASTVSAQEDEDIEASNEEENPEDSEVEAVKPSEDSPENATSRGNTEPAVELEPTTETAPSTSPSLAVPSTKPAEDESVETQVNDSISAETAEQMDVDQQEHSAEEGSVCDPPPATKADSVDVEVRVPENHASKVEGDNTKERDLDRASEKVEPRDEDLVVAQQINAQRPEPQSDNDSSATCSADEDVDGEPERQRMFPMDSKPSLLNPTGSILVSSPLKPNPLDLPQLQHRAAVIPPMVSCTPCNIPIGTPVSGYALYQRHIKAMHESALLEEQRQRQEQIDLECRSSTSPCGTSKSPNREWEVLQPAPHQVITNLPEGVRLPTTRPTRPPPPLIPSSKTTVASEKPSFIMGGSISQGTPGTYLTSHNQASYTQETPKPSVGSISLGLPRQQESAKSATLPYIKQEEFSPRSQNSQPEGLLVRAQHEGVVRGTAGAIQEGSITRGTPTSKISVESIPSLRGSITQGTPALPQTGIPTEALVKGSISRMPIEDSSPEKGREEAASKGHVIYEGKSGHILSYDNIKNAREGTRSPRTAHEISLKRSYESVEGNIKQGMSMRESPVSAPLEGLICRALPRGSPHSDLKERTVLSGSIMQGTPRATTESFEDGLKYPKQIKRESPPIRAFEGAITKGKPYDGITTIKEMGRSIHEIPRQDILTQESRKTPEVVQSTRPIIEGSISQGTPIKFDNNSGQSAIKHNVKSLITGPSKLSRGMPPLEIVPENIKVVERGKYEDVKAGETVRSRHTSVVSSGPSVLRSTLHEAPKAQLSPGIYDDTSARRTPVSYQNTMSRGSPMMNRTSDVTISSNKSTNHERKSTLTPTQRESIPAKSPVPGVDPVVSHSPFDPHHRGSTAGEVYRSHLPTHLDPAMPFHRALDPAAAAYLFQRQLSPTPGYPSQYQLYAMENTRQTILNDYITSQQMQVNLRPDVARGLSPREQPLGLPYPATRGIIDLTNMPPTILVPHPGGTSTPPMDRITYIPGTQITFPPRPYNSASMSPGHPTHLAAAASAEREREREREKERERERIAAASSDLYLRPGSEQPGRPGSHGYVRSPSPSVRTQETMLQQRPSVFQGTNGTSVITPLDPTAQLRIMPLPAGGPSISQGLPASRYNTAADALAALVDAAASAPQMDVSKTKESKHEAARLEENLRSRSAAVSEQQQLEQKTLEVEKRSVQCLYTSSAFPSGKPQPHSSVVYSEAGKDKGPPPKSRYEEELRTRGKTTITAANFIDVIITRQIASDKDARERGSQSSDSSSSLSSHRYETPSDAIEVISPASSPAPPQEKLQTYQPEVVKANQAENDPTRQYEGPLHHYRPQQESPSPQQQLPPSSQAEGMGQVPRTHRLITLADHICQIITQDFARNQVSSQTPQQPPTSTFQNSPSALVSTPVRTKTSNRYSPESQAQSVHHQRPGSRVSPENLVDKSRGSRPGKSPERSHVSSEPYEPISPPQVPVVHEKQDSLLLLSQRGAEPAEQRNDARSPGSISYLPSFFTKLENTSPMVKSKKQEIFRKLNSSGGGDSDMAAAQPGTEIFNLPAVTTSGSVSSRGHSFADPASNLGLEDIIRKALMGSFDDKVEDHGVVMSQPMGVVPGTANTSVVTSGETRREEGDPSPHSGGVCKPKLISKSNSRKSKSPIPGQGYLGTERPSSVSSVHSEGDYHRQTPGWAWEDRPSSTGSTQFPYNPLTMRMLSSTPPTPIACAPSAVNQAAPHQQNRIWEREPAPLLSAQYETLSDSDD
# Results are given in words; binding and its absence hold for the method and conditions named. Some results given as binding are weak or reduced against the parent protein; the word gives no strength.
# Target: estrogen receptor α (ERα) (human (endogenous in MCF7)) (UniProt P03372)
# Assay: sequential ChIP (re-ChIP); MCF7 cells untreated or treated with E2 (10 nM) and/or ICI 182,780 (20 nM); nuclei cross-linked with 1% formaldehyde, chromatin sonicated to ~1,000 bp; first immunoprecipitation with anti-ERα, elution in re-chip buffer at 37°C for 30 min, second immunoprecipitation with anti-NCoR, anti-SMRT or anti-LCoR; read-out PCR of the distal and proximal EREs of the MLK3 promoter
row,binding,Molecule
1,binds,Nuclear Receptor Corepressor (NcoR) (from UniProt O75376 1-2440)
2,binds,"Ligand dependent Corepressor (LCoR) (protein, UniProt Q96JN0 1-433) MQRMIQQFAAEYTSKNSSTQDPSQPNSTKNQSLPKASPVTTSPTAATTQNPVLSKLLMADQDSPLDLTVRKSQSEPSEQDGVLDLSTKKSPCAGSTSLSHSPGCSSTQGNGRPGRPSQYRPDGLRSGDGVPPRSLQDGTREGFGHSTSLKVPLARSLQISEELLSRNQLSTAASLGPSGLQNHGQHLILSREASWAKPHYEFNLSRMKFRGNGALSNISDLPFLAENSAFPKMALQAKQDGKKDVSHSSPVDLKIPQVRGMDLSWESRTGDQYSYSSLVMGSQTESALSKKLRAILPKQSRKSMLDAGPDSWGSDAEQSTSGQPYPTSDQEGDPGSKQPRKKRGRYRQYNSEILEEAISVVMSGKMSVSKAQSIYGIPHSTLEYKVKERLGTLKNPPKKKMKLMRSEGPDVSVKIELDPQGEAAQSANESKNE"
